The list shows only some results of the screen, not a fair sample: it is rich in T/C values a quarter to a half above the control, in often repeated tests (any T/C) and in doses without a T/C. Further doses and runs are listed elsewhere. T/C is the treated group as % of the vehicle group. Some doses have a count of surviving animals in place of a T/C: the source holds a T/C of zero for them, seemingly a mark for toxic or unscored doses. Some survivor counts are full or nearly so, which does not show that the dose was tolerated: the source hardly ever lists a survival T/C far under the control, and the zero likely stands for such cases as well. Survivors were counted at the toxicity check, usually on the fifth day, unless a day is given; later deaths do not show. Schedules are NCI's codes, read here as Q, the interval in days (D) or hours (H), X, the number of doses. Some entries were tested several times; the values are given in rising order. Some schedule codes hold Z or #, which are not explained here. For survival time, this PubChem deposit counts one and a half times the control or more as active, and values a quarter to a half above the control carry no call in these data; other NCI protocols may use other cut-offs.
Test system: L1210 leukemia ip in BDF1 mice, survival T/C
Assay: NCI In Vivo Anticancer Drug Screen. Data for tumor model L1210 Leukemia (intraperitoneal) in B6D2F1 (BDF1) mice
Conditions: T/C endpoint: mean survival time, higher T/C = longer survival
[1] = dose: 100.0 mg/kg/injection, schedule: Q01DX009 (ip), vehicle: saline with Tween-80
[2] = dose: 200.0 mg/kg/injection, schedule: Q04DX003 (ip), vehicle: saline with Tween-80
[3] = dose: 400.0 mg/kg/injection, schedule: Q04DX003 (ip), vehicle: saline with Tween-80
[4] = dose: 200.0 mg/kg/injection, schedule: Q01DX009 (ip), vehicle: saline
[5] = dose: 400.0 mg/kg/injection, schedule: Q01DX009 (ip), vehicle: Klucel (hydroxypropylcellulose) (HPC)
[6] = dose: 200.0 mg/kg/injection, schedule: Q01DX001 (ip), vehicle: saline
[7] = dose: 100.0 mg/kg/injection, schedule: Q01DX001 (ip), vehicle: carboxymethylcellulose (CMC)
[8] = dose: 200.0 mg/kg/injection, schedule: Q01DX001 (ip), vehicle: carboxymethylcellulose (CMC)
[9] = dose: 400.0 mg/kg/injection, schedule: Q01DX001 (ip), vehicle: carboxymethylcellulose (CMC)
[10] = dose: 400.0 mg/kg/injection, schedule: Q04DX003 (ip), vehicle: Klucel (hydroxypropylcellulose) (HPC)
[11] = dose: 400.0 mg/kg/injection, schedule: Q01DX001 (ip), vehicle: Klucel (hydroxypropylcellulose) (HPC)
[12] = dose: 400.0 mg/kg/injection, schedule: Q01DX009 (ip), vehicle: saline with Tween-80
[13] = dose: 120.0 mg/kg/injection, schedule: Q01DX Z (ip), vehicle: saline

**Q.** `OC(CC(O)(C(F)(F)F)C(F)(F)F)CC(O)(C(F)(F)F)C(F)(F)F` was tested. Which survivor count (dose: 50.0 mg/kg/injection, schedule: Q01DX009 (ip), vehicle: saline with Tween-80) did it give?
**A.** 6 of 6

**Q.** And the survivor count [1]?
**A.** 2 of 6

**Q.** And the survivor count [2]?
**A.** 3 of 6

**Q.** What about the survivor count [3] of the same compound?
**A.** 5 of 6

**Q.** What does the source list for `CCCCOP(=S)(OCCCC)[S][Hg][c]1ccco1`?
**A.** survivor count (dose: 100.0 mg/kg/injection, schedule: Q04DX002 (ip), vehicle: alcohol): 1 of 3 and 2 of 3; survivor count (dose: 200.0 mg/kg/injection, schedule: Q04DX002 (ip), vehicle: alcohol): 2 of 3; survivor count (dose: 400.0 mg/kg/injection, schedule: Q04DX002 (ip), vehicle: alcohol): 0 of 3

**Q.** What does the source list for `O=C1OCC/C1=C\C1CC=CCC1` (configuration not stated)?
**A.** T/C (dose: 100.0 mg/kg/injection, schedule: Q04DX003 (ip), vehicle: saline with Tween-80): 138 % of control; T/C [2]: 134 % of control; survivor count [3]: 2 of 6

**Q.** Which survivor count (dose: 400.0 mg/kg/injection, schedule: Q04DX003 (ip), vehicle: other) does the source give for `O=C1c2ccccc2CC1(Br)Br` here?
**A.** 1 of 6

**Q.** How did the survivor count (dose: 25.0 mg/kg/injection, schedule: Q01DX009 (ip), vehicle: saline) turn out when `CN(C)c1ccc(-c2nc3ccccn3c2N)cc1` was run?
**A.** 0 of 3

**Q.** And the survivor count (dose: 50.0 mg/kg/injection, schedule: Q01DX009 (ip), vehicle: saline)?
**A.** 0 of 3

**Q.** What about the survivor count (dose: 100.0 mg/kg/injection, schedule: Q01DX009 (ip), vehicle: saline) of the same compound?
**A.** 0 of 3

**Q.** And the survivor count [4]?
**A.** 0 of 3

**Q.** How did the survivor count (dose: 400.0 mg/kg/injection, schedule: Q01DX009 (ip), vehicle: acetone) turn out when `O=C(OCCOCCOCCOCCOCCOCCOCCOCCOCCOCCOCCOCCOCCOCCOCCOCCOCCOCCOCCOCCOCCOCCOC(=O)N1CC1)N1CC1` was run?
**A.** 3 of 6

**Q.** For `S=C(NCc1ccco1)Nc1ccccc1Cl`, which survivor count [5] is on record?
**A.** 0 of 6

**Q.** Which T/C (dose: 25.0 mg/kg/injection, schedule: Q01DX009 (ip), vehicle: Klucel (hydroxypropylcellulose) (HPC)) does the source give for `CCCN(C)N=Nc1ccccc1C(=O)O` here?
**A.** 140 % of control

**Q.** And the T/C (dose: 50.0 mg/kg/injection, schedule: Q01DX009 (ip), vehicle: Klucel (hydroxypropylcellulose) (HPC), evaluated on day 20)?
**A.** 125 % of control

**Q.** What about the T/C (dose: 50.0 mg/kg/injection, schedule: Q01DX009 (ip), vehicle: Klucel (hydroxypropylcellulose) (HPC), evaluated on day 30) of the same compound?
**A.** 130 and 140 % of control

**Q.** And the survivor count (dose: 100.0 mg/kg/injection, schedule: Q01DX009 (ip), vehicle: Klucel (hydroxypropylcellulose) (HPC))?
**A.** 0 of 6, 3 of 6, 6 of 6

**Q.** What about the survivor count (dose: 200.0 mg/kg/injection, schedule: Q01DX009 (ip), vehicle: Klucel (hydroxypropylcellulose) (HPC)) of the same compound?
**A.** 6 of 6

**Q.** And the survivor count [5]?
**A.** 4 of 6

**Q.** `O=[N+]([O-])c1ccccc1N=Nc1c(O)[nH]c2cccc(C(F)(F)F)c12` was tested. Which survivor count [6] did it give?
**A.** 2 of 6

**Q.** How did the survivor count [7] turn out when `[Cl][Hg][CH2]C1COC([CH2][Hg][Cl])CO1` (configuration not stated) was run?
**A.** 2 of 6

**Q.** And the survivor count [8]?
**A.** 1 of 6

**Q.** What about the survivor count [9] of the same compound?
**A.** 0 of 6

**Q.** With `COc1cc(C)c(Cc2cnc(N)nc2N)cc1OC` as the compound, how does the survivor count [10] read?
**A.** 4 of 6

**Q.** How did the survivor count [9] turn out when `N/C(=N\N=C\c1ccc(-c2ccccc2)cc1)N[N+](=O)[O-]` was run?
**A.** 2 of 4

**Q.** Which survivor count [10] does the source give for `C=CC[Se]CC=C` here?
**A.** 1 of 6

**Q.** What does the source list for `CNc1ccccc1CCc1ccccc1CO`?
**A.** survivor count (dose: 100.0 mg/kg/injection, schedule: Q04DX002 (ip), vehicle: Klucel (hydroxypropylcellulose) (HPC)): 3 of 3; survivor count (dose: 200.0 mg/kg/injection, schedule: Q04DX002 (ip), vehicle: Klucel (hydroxypropylcellulose) (HPC)): 3 of 3

**Q.** With `COc1cc(CC2c3cc(OC)c(OC)cc3CCN2C)c(Oc2cc3c(cc2OC)-c2c(OC)c(OC)c(OC)c4c2C(C3)N(C)CC4)cc1OC` (configuration not stated) as the compound, how does the survivor count [3] read?
**A.** 1 of 6

**Q.** Which survivor count [11] does the source give for `CCCC[S][Pb]([c]1ccccc1)([c]1ccccc1)[c]1ccccc1` here?
**A.** 2 of 6

**Q.** `CC(=O)Oc1c(F)c(F)c(F)c(F)c1F` was tested. Which T/C (dose: 12.5 mg/kg/injection, schedule: Q04DX002 (ip), vehicle: saline with Tween-80) did it give?
**A.** 143 % of control

**Q.** For `CN(Cc1cnc2nc(N)nc(N)c2n1)c1c(F)cc(C(=O)NC(CCC(=O)O)C(=O)O)cc1F` (configuration not stated), which T/C (dose: 3.0 mg/kg/injection, schedule: Q01DX009 (ip), vehicle: sodium bicarbonate) is on record?
**A.** 139 % of control

**Q.** What about the T/C (dose: 6.0 mg/kg/injection, schedule: Q01DX009 (ip), vehicle: sodium bicarbonate) of the same compound?
**A.** 142 % of control

**Q.** How did the survivor count [5] turn out when `C=CCNC(=S)Nc1cccc(OC(=O)Nc2ccc(Cl)c(Cl)c2)c1` was run?
**A.** 6 of 6

**Q.** With `CC1=CC2CCC1C2` (configuration not stated) as the compound, how does the survivor count (dose: 300.0 mg/kg/injection, schedule: Q01DX001 (ip), vehicle: acetone) read?
**A.** 4 of 6

**Q.** What does the source list for `CN(C)C(=O)c1cccc(NCc2ccc3nc(N)nc(N)c3c2)c1`?
**A.** survivor count (dose: 200.0 mg/kg/injection, schedule: Q01DX009 (ip), vehicle: saline with Tween-80): 3 of 6; survivor count [12]: 6 of 6

**Q.** `C#CC[P+](c1ccccc1)(c1ccccc1)c1ccccc1` was tested. Which survivor count (dose: 50.0 mg/kg/injection, schedule: Q01DX001 (ip), vehicle: saline) did it give?
**A.** 3 of 6

**Q.** And the survivor count (dose: 100.0 mg/kg/injection, schedule: Q01DX001 (ip), vehicle: saline)?
**A.** 0 of 6

**Q.** What about the survivor count [6] of the same compound?
**A.** 0 of 6

**Q.** What about the survivor count (dose: 400.0 mg/kg/injection, schedule: Q01DX001 (ip), vehicle: saline) of the same compound?
**A.** 0 of 6

**Q.** How did the survivor count (dose: 100.0 mg/kg/injection, schedule: Q04DX002 (ip), vehicle: saline with Tween-80) turn out when `CCOc1ccc(OCC)c(NC(=O)Nc2ccccc2Cl)c1` was run?
**A.** 3 of 3

**Q.** With `C=C1CC2(c3ccccc3)C(=O)C1(c1ccccc1)C(c1ccccc1)=C2c1ccccc1` (configuration not stated) as the compound, how does the survivor count [7] read?
**A.** 2 of 4

**Q.** Which survivor count (dose: 400.0 mg/kg/injection, schedule: Q01DX001 (ip), vehicle: other) does the source give for `C/C(=N/OC(=O)N(C)C)c1ccc(Cl)c(Cl)c1` here?
**A.** 0 of 4

**Q.** For `CC(C)(C)NC(=O)CCl`, which survivor count [11] is on record?
**A.** 2 of 6

**Q.** For `CCCCOP(=O)(/C=C/c1cccs1)OCCCC`, which survivor count [3] is on record?
**A.** 2 of 6

**Q.** With `CC(=O)OCC1OC(N2C(=O)/C(=C/c3ccc(Cl)cc3)SC2=S)C(OC(C)=O)C(OC(C)=O)C1OC(C)=O` (configuration not stated) as the compound, how does the survivor count (dose: 50.0 mg/kg/injection, schedule: Q01DX005 (ip), vehicle: other) read?
**A.** 6 of 6

**Q.** And the survivor count (dose: 100.0 mg/kg/injection, schedule: Q01DX005 (ip), vehicle: other)?
**A.** 5 of 6

**Q.** What about the survivor count (dose: 200.0 mg/kg/injection, schedule: Q01DX005 (ip), vehicle: other) of the same compound?
**A.** 1 of 6

**Q.** And the survivor count (dose: 400.0 mg/kg/injection, schedule: Q01DX005 (ip), vehicle: other)?
**A.** 0 of 6

**Q.** For `CN=C(N)c1ccc(N=C(N)c2cccc(C(N)=Nc3ccc(C(N)=NC)cc3)c2)cc1`, which survivor count (dose: 60.0 mg/kg/injection, schedule: Q01DX Z (ip), vehicle: saline) is on record?
**A.** 0 of 6

**Q.** What about the survivor count [13] of the same compound?
**A.** 0 of 6

**Q.** `CN(C)c1ccc(/C=N/N=C(N)N)cc1` was tested. Which survivor count [13] did it give?
**A.** 0 of 6

**Q.** And the survivor count (dose: 240.0 mg/kg/injection, schedule: Q01DX Z (oral), vehicle: other)?
**A.** 0 of 6

**Q.** Which results are given for `COC(=O)C1(N(C)C)c2ccccc2-c2ccccc21`?
**A.** survivor count [8]: 2 of 4; survivor count [9]: 1 of 4

**Q.** How did the survivor count [12] turn out when `CC(=O)NCCc1ccc(S(=O)(=O)F)cc1` was run?
**A.** 1 of 6

**Q.** Which results are given for `CCCCCCCCCCN1CCC(N2CCCCC2)CC1`?
**A.** survivor count (dose: 200.0 mg/kg/injection, schedule: Q04DX002 (ip), vehicle: saline): 0 of 3; survivor count (dose: 400.0 mg/kg/injection, schedule: Q04DX002 (ip), vehicle: saline): 0 of 3

**Q.** How did the survivor count [1] turn out when `CC(C)(CBr)COC(=O)Nc1cccc2ccccc12` was run?
**A.** 2 of 3

**Q.** With `CCOC(=O)/C(C#N)=N\O` as the compound, how does the survivor count [4] read?
**A.** 0 of 6

**Q.** And the survivor count (dose: 200.0 mg/kg/injection, schedule: Q04DX003 (ip), vehicle: saline)?
**A.** 0 of 6

**Q.** What about the survivor count (dose: 400.0 mg/kg/injection, schedule: Q04DX003 (ip), vehicle: saline) of the same compound?
**A.** 0 of 6
